Holding throughout (experiment): PRISMA enrichment of interactor (LFQ) in peptide spot vs all other peptide spots (log2 fold change); higher = stronger / more specific binding of the interactor to the peptide
One test addresses AHNAK, Q09666. The procedure: (§1)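 PRISMA: 15-aa overlapping tiles (offset 8 aa) of 60 microproteins, plus SOS1/GLUT1 control peptides, were spot-synthesized on cellulose membranes in triplicate. Membranes were incubated with benzonase-treated HEK293T lysate, and bound proteins were identified by LC-MS/MS with LFQ. Enrichment is the log2 fold change of each protein in one spot versus all other spots. Only interactors passing the significance cutoff are listed.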

The chains behind the UniProt entries cited, without tags or fusion partners.
ECPAS, Q5VYK3, UniProt Q5VYK3, whole entry: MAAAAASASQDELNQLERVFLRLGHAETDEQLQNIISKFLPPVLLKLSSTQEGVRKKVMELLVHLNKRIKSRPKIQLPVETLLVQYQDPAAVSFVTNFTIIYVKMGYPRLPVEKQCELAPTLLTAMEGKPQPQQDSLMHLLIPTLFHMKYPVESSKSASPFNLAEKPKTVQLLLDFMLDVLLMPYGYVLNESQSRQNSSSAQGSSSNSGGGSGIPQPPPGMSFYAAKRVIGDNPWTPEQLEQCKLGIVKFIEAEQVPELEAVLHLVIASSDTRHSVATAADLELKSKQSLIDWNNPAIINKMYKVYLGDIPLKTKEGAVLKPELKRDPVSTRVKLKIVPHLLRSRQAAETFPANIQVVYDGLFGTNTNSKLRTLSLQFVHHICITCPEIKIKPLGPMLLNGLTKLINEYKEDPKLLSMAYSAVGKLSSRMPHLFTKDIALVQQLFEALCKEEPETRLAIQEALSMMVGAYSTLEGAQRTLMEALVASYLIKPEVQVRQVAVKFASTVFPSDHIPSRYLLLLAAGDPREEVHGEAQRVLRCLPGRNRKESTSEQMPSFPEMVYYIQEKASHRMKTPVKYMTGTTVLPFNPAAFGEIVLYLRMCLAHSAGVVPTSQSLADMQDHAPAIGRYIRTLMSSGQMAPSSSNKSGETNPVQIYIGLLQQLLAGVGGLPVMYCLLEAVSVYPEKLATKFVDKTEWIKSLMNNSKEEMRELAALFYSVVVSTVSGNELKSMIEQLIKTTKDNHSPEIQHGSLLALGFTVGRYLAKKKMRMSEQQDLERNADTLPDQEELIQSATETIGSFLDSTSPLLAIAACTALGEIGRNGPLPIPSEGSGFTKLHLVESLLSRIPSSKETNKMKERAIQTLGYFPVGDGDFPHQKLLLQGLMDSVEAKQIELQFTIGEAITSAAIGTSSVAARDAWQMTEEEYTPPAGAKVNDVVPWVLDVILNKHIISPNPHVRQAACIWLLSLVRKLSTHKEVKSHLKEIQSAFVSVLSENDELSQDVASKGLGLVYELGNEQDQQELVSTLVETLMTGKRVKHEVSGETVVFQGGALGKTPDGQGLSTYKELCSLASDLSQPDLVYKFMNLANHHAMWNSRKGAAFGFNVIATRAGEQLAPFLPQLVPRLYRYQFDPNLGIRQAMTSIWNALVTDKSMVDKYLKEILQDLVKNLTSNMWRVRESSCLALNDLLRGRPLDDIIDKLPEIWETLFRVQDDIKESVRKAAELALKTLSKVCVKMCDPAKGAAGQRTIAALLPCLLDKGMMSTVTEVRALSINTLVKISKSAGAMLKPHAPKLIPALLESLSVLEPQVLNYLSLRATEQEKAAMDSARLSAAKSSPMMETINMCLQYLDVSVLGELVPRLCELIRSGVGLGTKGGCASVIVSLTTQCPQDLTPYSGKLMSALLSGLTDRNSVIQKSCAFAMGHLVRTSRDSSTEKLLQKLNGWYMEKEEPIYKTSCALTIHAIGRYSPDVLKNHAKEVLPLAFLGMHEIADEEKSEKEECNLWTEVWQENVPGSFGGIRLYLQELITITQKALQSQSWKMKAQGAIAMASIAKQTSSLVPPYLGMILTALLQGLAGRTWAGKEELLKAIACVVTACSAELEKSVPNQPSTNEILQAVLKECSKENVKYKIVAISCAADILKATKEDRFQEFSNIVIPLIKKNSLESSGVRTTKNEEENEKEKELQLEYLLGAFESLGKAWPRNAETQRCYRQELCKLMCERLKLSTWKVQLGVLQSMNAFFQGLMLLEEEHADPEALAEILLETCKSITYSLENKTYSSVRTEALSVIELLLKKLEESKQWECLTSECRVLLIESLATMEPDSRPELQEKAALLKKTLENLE
MYH9, P35579, UniProt P35579, whole entry: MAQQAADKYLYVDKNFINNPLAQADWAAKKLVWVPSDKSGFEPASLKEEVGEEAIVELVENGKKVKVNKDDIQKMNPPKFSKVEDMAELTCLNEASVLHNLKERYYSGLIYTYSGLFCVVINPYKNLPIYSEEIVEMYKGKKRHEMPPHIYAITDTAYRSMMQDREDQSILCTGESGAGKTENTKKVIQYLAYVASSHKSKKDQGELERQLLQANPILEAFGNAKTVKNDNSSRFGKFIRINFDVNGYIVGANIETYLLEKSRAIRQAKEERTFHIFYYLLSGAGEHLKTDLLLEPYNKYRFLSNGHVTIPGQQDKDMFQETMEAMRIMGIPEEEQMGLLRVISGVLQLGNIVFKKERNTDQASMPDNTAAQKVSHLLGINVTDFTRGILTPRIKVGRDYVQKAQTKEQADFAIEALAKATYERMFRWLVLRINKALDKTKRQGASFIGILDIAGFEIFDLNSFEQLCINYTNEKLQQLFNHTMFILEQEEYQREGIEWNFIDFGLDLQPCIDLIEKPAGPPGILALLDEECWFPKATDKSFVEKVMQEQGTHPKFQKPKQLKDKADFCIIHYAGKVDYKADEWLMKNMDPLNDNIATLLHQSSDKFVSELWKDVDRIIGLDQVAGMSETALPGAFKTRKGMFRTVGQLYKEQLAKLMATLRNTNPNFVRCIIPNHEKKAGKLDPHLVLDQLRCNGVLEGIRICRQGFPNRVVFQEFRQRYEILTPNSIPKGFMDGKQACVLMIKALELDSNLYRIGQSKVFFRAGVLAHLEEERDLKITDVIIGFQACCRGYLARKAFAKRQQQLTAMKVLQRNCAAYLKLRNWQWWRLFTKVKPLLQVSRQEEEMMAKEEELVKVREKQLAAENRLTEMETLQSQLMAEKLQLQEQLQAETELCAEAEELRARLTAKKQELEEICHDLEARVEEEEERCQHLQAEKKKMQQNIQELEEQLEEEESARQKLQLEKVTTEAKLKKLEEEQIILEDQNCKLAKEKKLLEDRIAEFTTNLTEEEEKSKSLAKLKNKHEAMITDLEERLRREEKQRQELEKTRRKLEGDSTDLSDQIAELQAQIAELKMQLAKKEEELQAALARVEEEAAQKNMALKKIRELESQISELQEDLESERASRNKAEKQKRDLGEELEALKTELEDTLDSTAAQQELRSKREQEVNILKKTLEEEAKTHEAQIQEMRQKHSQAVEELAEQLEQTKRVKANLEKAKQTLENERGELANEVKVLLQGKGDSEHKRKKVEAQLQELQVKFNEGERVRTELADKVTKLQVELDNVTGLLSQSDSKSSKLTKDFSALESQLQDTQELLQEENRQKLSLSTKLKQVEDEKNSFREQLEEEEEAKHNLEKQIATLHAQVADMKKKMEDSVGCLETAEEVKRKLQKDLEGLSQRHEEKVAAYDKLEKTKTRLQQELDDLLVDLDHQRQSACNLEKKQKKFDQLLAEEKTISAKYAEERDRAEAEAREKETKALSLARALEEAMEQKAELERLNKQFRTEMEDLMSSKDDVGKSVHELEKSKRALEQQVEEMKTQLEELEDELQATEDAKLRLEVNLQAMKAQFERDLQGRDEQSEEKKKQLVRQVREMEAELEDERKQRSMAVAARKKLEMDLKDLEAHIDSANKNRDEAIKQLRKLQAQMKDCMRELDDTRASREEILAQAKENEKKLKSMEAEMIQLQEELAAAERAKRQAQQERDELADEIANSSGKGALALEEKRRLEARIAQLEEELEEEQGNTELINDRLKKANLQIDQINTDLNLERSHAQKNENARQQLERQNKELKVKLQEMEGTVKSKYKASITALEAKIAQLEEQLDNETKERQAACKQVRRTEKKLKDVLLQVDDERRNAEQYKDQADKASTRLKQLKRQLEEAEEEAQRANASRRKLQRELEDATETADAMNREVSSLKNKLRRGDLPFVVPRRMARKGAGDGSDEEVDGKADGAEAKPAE
AIFM1, O95831, UniProt O95831, whole entry: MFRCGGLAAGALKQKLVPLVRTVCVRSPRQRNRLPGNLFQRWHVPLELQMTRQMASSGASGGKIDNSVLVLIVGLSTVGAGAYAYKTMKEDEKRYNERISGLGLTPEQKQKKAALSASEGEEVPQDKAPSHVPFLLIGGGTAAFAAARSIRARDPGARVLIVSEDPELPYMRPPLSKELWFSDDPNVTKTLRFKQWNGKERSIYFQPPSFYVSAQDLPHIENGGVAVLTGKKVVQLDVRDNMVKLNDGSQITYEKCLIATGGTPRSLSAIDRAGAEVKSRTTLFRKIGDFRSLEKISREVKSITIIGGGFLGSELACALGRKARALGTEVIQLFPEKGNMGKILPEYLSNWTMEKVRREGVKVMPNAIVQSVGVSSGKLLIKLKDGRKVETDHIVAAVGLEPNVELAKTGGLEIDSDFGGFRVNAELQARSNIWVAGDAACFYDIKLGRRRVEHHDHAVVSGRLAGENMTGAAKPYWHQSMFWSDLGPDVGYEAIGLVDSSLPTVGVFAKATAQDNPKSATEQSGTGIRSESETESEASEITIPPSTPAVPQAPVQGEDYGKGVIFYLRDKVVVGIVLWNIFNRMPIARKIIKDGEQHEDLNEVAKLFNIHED
GNB2, P62879, UniProt P62879, whole entry: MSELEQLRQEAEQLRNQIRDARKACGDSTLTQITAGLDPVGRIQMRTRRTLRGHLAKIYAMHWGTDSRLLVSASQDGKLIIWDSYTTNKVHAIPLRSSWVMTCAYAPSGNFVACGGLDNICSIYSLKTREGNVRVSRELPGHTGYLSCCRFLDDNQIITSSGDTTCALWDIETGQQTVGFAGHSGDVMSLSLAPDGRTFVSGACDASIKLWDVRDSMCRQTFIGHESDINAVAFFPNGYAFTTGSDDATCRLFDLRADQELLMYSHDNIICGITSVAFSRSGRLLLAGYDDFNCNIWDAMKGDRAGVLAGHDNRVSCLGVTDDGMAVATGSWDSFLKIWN
AHSA1, O95433, UniProt O95433, whole entry: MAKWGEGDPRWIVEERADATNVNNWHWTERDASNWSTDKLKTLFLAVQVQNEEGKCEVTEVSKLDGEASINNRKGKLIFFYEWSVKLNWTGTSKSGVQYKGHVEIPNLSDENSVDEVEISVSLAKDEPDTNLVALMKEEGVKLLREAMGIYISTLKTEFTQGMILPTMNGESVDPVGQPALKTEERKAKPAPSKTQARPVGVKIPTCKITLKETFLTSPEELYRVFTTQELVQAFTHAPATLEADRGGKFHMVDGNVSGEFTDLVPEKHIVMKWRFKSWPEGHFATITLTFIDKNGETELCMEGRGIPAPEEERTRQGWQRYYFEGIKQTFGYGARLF
ATP6V1G1, O75348, UniProt O75348, whole entry: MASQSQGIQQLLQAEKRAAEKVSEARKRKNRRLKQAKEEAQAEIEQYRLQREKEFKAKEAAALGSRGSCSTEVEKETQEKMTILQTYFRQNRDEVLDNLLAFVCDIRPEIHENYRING
EIF1AX, P47813, UniProt P47813, whole entry: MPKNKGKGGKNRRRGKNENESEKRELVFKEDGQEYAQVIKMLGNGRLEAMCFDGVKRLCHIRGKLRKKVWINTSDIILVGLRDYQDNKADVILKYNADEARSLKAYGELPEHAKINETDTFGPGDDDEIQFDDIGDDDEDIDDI
SDC2, P34741, UniProt P34741, whole entry: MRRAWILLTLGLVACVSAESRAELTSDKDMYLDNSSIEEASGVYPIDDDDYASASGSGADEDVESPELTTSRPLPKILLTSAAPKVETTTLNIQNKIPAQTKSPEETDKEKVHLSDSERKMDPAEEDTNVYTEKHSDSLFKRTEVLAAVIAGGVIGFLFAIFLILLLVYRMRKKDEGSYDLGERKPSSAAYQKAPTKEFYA
SRSF1, Q07955, UniProt Q07955, whole entry: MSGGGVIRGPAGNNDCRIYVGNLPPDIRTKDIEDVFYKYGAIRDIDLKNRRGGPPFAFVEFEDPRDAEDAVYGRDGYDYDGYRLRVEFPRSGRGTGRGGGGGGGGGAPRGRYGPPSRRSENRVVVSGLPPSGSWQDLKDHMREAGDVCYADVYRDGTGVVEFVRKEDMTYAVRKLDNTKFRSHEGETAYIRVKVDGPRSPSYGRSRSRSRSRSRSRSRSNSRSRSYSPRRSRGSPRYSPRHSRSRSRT

The target of a further test is AP3D1, O14617. As to the method: as §1
For a further test, the target named is ASNS, P08243. As to the method:
as §1

The next test addresses CDC42SE2, Q9NRR3. The procedure: as §1
For another test, the target named is CEP290, O15078. The procedure: as §1
The next test deals with CREB1, P16220. The procedure:
as §1

Another test concerns the target DSC1, Q08554. As to the method: as §1
The next test has as its target ECPAS, Q5VYK3. The procedure: as §1
Another test concerns the target GABARAPL2, P60520. The procedure:
as §1

Another test addresses KARS, Q15046. As to the method: as §1
For the next test, the target named is MLIP, Q5VWP3. The procedure: as §1
Another test addresses MRPS9, P82933. The procedure:
as §1

Another test concerns the target MYH9, P35579. As to the method: as §1
In the next test the target is NOL7, Q9UMY1. The procedure:
as §1

Another test concerns the target PGRMC2, O15173. As to the method:
as §1

The target in a further test is PRDX6, P30041. The procedure:
as §1

A further test has as its target PRRC2A, P48634. The procedure:
as §1

The target of the next test is PSRC1, Q6PGN9. As to the method: as §1
Another test addresses RTCB, Q9Y3I0. The procedure:
as §1

Another test deals with SDCBP, O00560. As to the method:
as §1

A further test addresses SUGT1, Q9Y2Z0. As to the method: as §1
The target in the next test is TIMM50, Q3ZCQ8. The procedure:
as §1

A further test deals with VPS25, Q9BRG1. The procedure:
as §1

Another test has as its target XPO7, Q9UIA9. As to the method:
as §1

Another test addresses AIFM1, O95831. The procedure:
as §1

The next test addresses GNB2, P62879. The procedure:
as §1

Another test has as its target HAT1, O14929. The procedure:
as §1

Another test has as its target LMNB2, Q03252. As to the method:
as §1

Another test addresses MRPL9, Q9BYD2. As to the method:
as §1

A further test addresses NAMPT, P43490. The procedure: as §1
A further test deals with POLDIP2, Q9Y2S7. As to the method:
as §1

For a further test, the target named is TP53, P04637. The procedure:
as §1

A further test has as its target AHSA1, O95433. The procedure: as §1
In the next test the target is ATP6V1G1, O75348. The procedure: as §1
Another test concerns the target ATRN, O75882. The procedure:
as §1

In a further test the target is BAG4, O95429. The procedure:
as §1

For the next test, the target named is CDIPT, O14735. As to the method: as §1
For a further test, the target named is CMAS, Q8NFW8. As to the method:
as §1

The next test deals with CTNND1, O60716. The procedure:
as §1

A further test concerns the target EIF1AX, P47813. The procedure:
as §1

A further test concerns the target FANCD2, Q9BXW9. As to the method: as §1
Another test concerns the target GTF2I, P78347. The procedure:
as §1

The target of another test is HUWE1, Q7Z6Z7. As to the method: as §1
Another test addresses LLPH, Q9BRT6. As to the method:
as §1

The target of another test is MAZ, P56270. As to the method: as §1
The target of another test is MRPL27, Q9P0M9. As to the method: as §1
The target in the next test is MRPS15, P82914. The procedure: as §1
For the next test, the target named is PPP1R12A, O14974. As to the method: as §1
In a further test the target is PYM1, Q9BRP8. As to the method: as §1
In the next test the target is RPS29, P62273. As to the method: as §1
The target in another test is RSRC2, Q7L4I2. The procedure:
as §1

The target of a further test is SDC2, P34741. The procedure:
as §1

In the next test the target is SFXN2, Q96NB2. The procedure: as §1
In a further test the target is SOAT1, P35610. The procedure:
as §1

The target in the next test is SRSF1, Q07955. As to the method: as §1
The target in the next test is SRSF4, Q08170. The procedure:
as §1

For another test, the target named is TAF15, Q92804. The procedure: as §1
Another test deals with TIAL1, Q01085. As to the method:
as §1

A further test deals with UTP11, Q9Y3A2. As to the method:
as §1

For another test, the target named is XRN2, Q9H0D6. The procedure:
as §1

The list shows a part of the results. Only hits are listed; about a third recur on repeated control peptides.

B1: ZEB2 (peptide)
chain: IGGACFRVSRLSPTE
For the molecule B1, the “PRISMA enrichment of interactor (log2)” value in the test with AHNAK, Q09666 amounted to 8.1; with AP3D1, O14617, 4.91; with ASNS, P08243 it was 4.47; with CDC42SE2, Q9NRR3, 4.64; in the test with CEP290, O15078, 6.17; with CREB1, P16220, 4.13. The “PRISMA enrichment of interactor (log2)” value is 4.55 in the test with DSC1, Q08554; 5.11 in the test with ECPAS, Q5VYK3; 5.54 in the test with GABARAPL2, P60520; 4.83 in the test with KARS, Q15046; 4.68 with MLIP, Q5VWP3; 6.13 with MRPS9, P82933. Moreover, the “PRISMA enrichment of interactor (log2)” value with MYH9, P35579 worked out at 7.4; with NOL7, Q9UMY1, 5.59; with PGRMC2, O15173, 5.46; with PRDX6, P30041, 4.11; in the test with PRRC2A, P48634, 7.67; with PSRC1, Q6PGN9 it was 5.16. The “PRISMA enrichment of interactor (log2)” value came to 5.23 with RTCB, Q9Y3I0; 4.92 with SDCBP, O00560; 5.14 with SUGT1, Q9Y2Z0; 5.48 with TIMM50, Q3ZCQ8; 4.32 in the test with VPS25, Q9BRG1; 7.55 with XPO7, Q9UIA9.

B2: JHDM1D-AS1 (peptide)
chain: LENVPPEFPASSKET
For B2, the “PRISMA enrichment of interactor (log2)” value was 8.2 with AIFM1, O95831; 4.62 with GNB2, P62879; 4.39 with HAT1, O14929; 7.21 with LMNB2, Q03252; 7.21 with MRPL9, Q9BYD2; 5.68 in the test with NAMPT, P43490. The “PRISMA enrichment of interactor (log2)” value with POLDIP2, Q9Y2S7 was 5.46; in the test with TP53, P04637 it was 5.47.

B3: C5orf56 (peptide)
chain: TGAAAVSGEGRRMQR
As for B3, the “PRISMA enrichment of interactor (log2)” value with AHSA1, O95433 amounted to 9.86; with ATP6V1G1, O75348 it was 7.89; with ATRN, O75882, 4.54; with BAG4, O95429 it was 6.81; with CDIPT, O14735 it was 10.3; in the test with CMAS, Q8NFW8 it was 3.9. For the same molecule, the “PRISMA enrichment of interactor (log2)” value worked out at 4.54 with CTNND1, O60716; 5.08 with EIF1AX, P47813; 7.95 with FANCD2, Q9BXW9; 4.56 with GTF2I, P78347; 6.11 with HUWE1, Q7Z6Z7; 4.24 with LLPH, Q9BRT6. The “PRISMA enrichment of interactor (log2)” value was 5.49 in the test with MAZ, P56270; 8.04 with MRPL27, Q9P0M9; 5.13 with MRPS15, P82914; 4.7 with PPP1R12A, O14974; 5.14 in the test with PYM1, Q9BRP8; 4.33 with RPS29, P62273. In addition, the “PRISMA enrichment of interactor (log2)” value in the test with RSRC2, Q7L4I2 was 4.9; with SDC2, P34741 it was 5.81; with SFXN2, Q96NB2, 5.83; with SOAT1, P35610, 4.57; in the test with SRSF1, Q07955, 5.41; with SRSF4, Q08170, 5.73. Besides, the “PRISMA enrichment of interactor (log2)” value was 5 with TAF15, Q92804; 5.32 with TIAL1, Q01085; 8.91 with UTP11, Q9Y3A2; 4.57 with XRN2, Q9H0D6.

These data come from the supplement of paper PMC10032668.
